{"source": "patent US20030108619A1", "about": "“Bone-strengthening agents, food compositions for strengthening bone and feed compositions for strengthening bone” (priority 2000, published 2003)", "experiment": "Body weight after completion of the feeding, Example 2", "format": "in vivo, rat", "conditions": "50-weeks old normal female Wistar rats, oral once a day for 14 days, CPP 40 mg/100 g body weight, genistein 50 μg/100 g body weight", "method": "2. CPP-administered group: Basic feed+CPP (40 mg/100 g body weight)\n3. Genistein-administered group: Basic feed+genistein (50 μg/100 g body weight)\n4. CPP+genistein-administered group: Basic feed+CPP (40 mg/100 g body weight)+genistein (50 μg/100 g body weight)\nAs the CPP, a solution of CPP-III (casein phosphopeptide content 85%) manufactured by Meiji Seika Kaisha, Ltd., dissolved in distilled water was used. As the genistein, a reagent (manufactured by Sigma Chemical Company in U.S. A.) extracted from soybean and highly purified, dissolved in a 10% ethanol solution was used.\nAnimal groups each consisting of five animals were fed with the basic feed under constant temperature and constant humidity conditions of room temperature 25° C., and 55% humidity. In addition, the control group was administered with 1 ml/100 g body weight of purified distilled water and the other groups were each orally administered with CPP and/or genistein in the above-mentioned amounts once a day for 14 days by using a stomach tube. After 24 hours from the last administration, the rats were sacrificed and the femora were extracted. The extracted femora were used for the measurement of bone components as shown below.\nSignificant tests of respective measured values were performed by using Student's t-test. Values with a risk factor of 5% or less were taken as significant. […]", "data": [{"molecule": "O=c1c(-c2ccc(O)cc2)coc2cc(O)cc(O)c12", "note": "[Genistein, genistein]", "values": [{"measurement": "Body weight after completion of the feeding", "value": "229.6 ± 7.6", "unit": "g"}, {"measurement": "Body weight after completion of the feeding", "setting": "listed as genistein", "value": "229.6 ± 7.6", "unit": "g"}]}]}
